According to PubChem BioAssay AID493014 (National Center for Advancing Translational Sciences (NCATS), 2011):
The other results are listed elsewhere or left out. These are further read-outs of the screen, such as a control signal, another cell line or another target. No call is given for them. The list favours compounds with an active or inconclusive main result. Words in brackets tell the shape of the fitted curve; partial curves, single points and poor fits give uncertain potencies.

Assay: qHTS Assay to Find Inhibitors of Chronic Active B-Cell Receptor Signaling
Conditions: ABC-DLBCL IkBa-CBG/CBR reporter, luminescence ratio (green luciferase fused to IkBa over red control in TMD8 lymphoma cells), 4 h
Outline: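 TMD8 human ABC-DLBCL cells with doxycycline-inducible IκBα–green luciferase fusion and unfused red luciferase, in 0.5% FBS medium; compounds up to 46 uM, 4 h at 37C. Green/red luminescence ratio, filter-overlap corrected, fitted to concentration-response curves.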

[1] = measured here: CBR red luminescence, cell number
[2] = measured here: IkBa-CBG green luminescence

Structure (SMILES) | AC50 [1] | AC50 [2]
Cc1ccc(C(=O)NNC(=O)c2ccc3c(c2)OCCO3)cc1 | 6.51 µM [rising, full curve] | –
COc1ccc(NC(=O)CSc2ncc(-c3ccc(F)cc3)n2Cc2ccco2)cc1 | 23.1 µM [falling, single point] | 23.1 µM [rising, partial curve, poor fit]
CC(C)(C)c1nnc2sc(SCC(=O)N3CCc4ccccc43)nn2c1=O | 0.631 µM [falling, full curve, poor fit] | –
CN1CCN(c2ccc(NC(=O)c3ccccc3Br)cc2)CC1 | 18.4 µM [falling, single point] | –
Cc1cccc(C)c1NC(=O)COc1ccccc1C(=O)Nc1ccc(Br)cn1 | 1.64 µM [rising, full curve, poor fit] | –
CCOC(=O)N1CCC(NC(=O)c2ccc3c(c2)N=C(CC)c2cc(C)ccc2S3)CC1 | 11.2 µM [falling, partial curve, poor fit] | –
Cn1c(C(=O)NC2CCCC2)cc2c(=O)n(C)c3ccccc3c21 | 3.16 µM [rising, full curve, poor fit] | –
Cc1ccc(Cn2c(C)nc3c(c2=O)c2nc4ccccc4nc2n3Cc2ccco2)cc1 | 2.31 µM [falling, full curve] | –
CCOC(=O)c1cccc(NC(=O)c2cccs2)c1 | 14.1 µM [falling, partial curve, poor fit] | –
O=P(O)(O)c1ccccc1OCCOCCOCCOCCOc1ccccc1P(=O)(O)O | 0.398 µM [falling, full curve, poor fit] | –
NC(=O)NC(CC(=O)NCCc1ccccn1)c1ccccc1Cl (configuration not stated) | 0.1 µM [falling, full curve, poor fit] | –
Cc1cccc(NC(=O)CCC(=O)Nc2nnc(C(F)(F)F)s2)c1 | 20 µM [rising, partial curve, poor fit] | –
Cc1nn(-c2ccccc2)c(Cl)c1/C=N/NC(=O)c1ccccc1F | 35.5 µM [falling, single point] | –
O=C(O)CCN1C(=O)/C(=C\c2cccc(OCC(=O)Nc3ccc(Cl)cc3)c2)SC1=S | 1.12 µM [falling, full curve] | –
Cc1ccc(NC(=O)c2sc3ncn(Cc4cccc(F)c4)c(=O)c3c2C)c(Br)c1 | 17.8 µM [rising, single point] | –
CC(C)(C)C(=O)N1CCc2cc(-c3csc(N)n3)ccc21 | 2.51 µM [rising, full curve] | –
CC(C)c1ccc(S(=O)(=O)Nc2ccc(SC(F)F)cc2)cc1 | – | 16.4 µM [rising, partial curve, poor fit]
Cc1ccc2nc(NC3=NC(CC(=O)O)C(=O)N3)nc(C)c2c1 (configuration not stated) | 6.31 µM [falling, single point] | –
COc1ccc(/C=C2\COc3ccccc3C2=O)c(OC)c1 | 35.5 µM [falling, single point] | –
O=c1[nH]c2ccccc2cc1-c1nnn(-c2ccc(F)cc2)n1 | 0.0891 µM [falling, full curve, poor fit] | –
CCN(CC)S(=O)(=O)c1ccc(Oc2ccccc2)cc1 | 0.326 µM [rising, full curve, poor fit] | –

Structure (SMILES) | AC50 [1] | AC50 [2]
COc1cc(OC)c(-c2nn3c(-c4ccncc4)nnc3s2)cc1OC | 11.2 µM [rising, partial curve, poor fit] | –
CCOC(=O)c1ccc2c(c1)nc(SCC(=O)c1cc3ccccc3o1)n2CC | 29.1 µM [rising, single point] | –
COCCOC1CCN(C(=O)c2cc(COc3ccc(F)cc3F)on2)CC1 | 35.5 µM [rising, single point] | –
C#Cc1ccc([C@H]2C=C(C(=O)NC3CC3)O[C@@H](OCC)[C@@H]2CCCO)cc1 | 6.31 µM [rising, single point] | –
COc1ccc2cc3c(N)nn(C(=O)c4cccc(F)c4)c3nc2c1 | 0.891 µM [falling, full curve] | –
CC1=C(C(=O)OCc2ccccc2)C(c2ccc3ccccc3c2)NC(=O)N1CCCCCC(=O)O (configuration not stated) | 29.1 µM [falling, single point] | –
COc1cc(C(=O)OCC(=O)Nc2ccc(SC(F)F)cc2)cc(OC)c1OC | 29.1 µM [falling, single point] | –
COc1ccc2c(c1)[n+](=O)c(C(C)=O)c(C)n2[O-] | 18.4 µM [falling, partial curve, poor fit] | –
COc1cc(NC(=O)c2noc(C)c2[N+](=O)[O-])c(OC)cc1Cl | 5.01 µM [falling, partial curve, poor fit] | –
Cc1nc2ccccc2c(=O)n1NC(=O)Nc1ccccc1 | 6.51 µM [falling, single point] | –
COc1ccccc1N/N=C(\C#N)C(=N)N1CCOCC1 | 2.82 µM [falling, full curve, poor fit] | –
O=C1c2ccccc2C(=O)N1OCc1cccc(Cl)c1 | 20.6 µM [rising, partial curve] | –
COc1cccc(-c2nnc(NC(=O)C3CCCCC3)o2)c1 | 0.58 µM [falling, partial curve, poor fit] | –
O=C(OCCNc1nc(-c2ccccc2)nc2ccccc12)c1cccnc1 | 35.5 µM [falling, single point] | –
O=C(CCCN1C(=O)c2ccccc2C1=O)NCc1ccc(F)cc1 | 2.24 µM [rising, full curve, poor fit] | –
O=C(NCCc1c[nH]c2ccccc12)c1cnc2sccn2c1=O | 13 µM [falling, single point] | –
COc1ccc(/C=N/NC(=O)c2ccn[nH]2)cc1Cn1nc(C)c([N+](=O)[O-])c1C | 0.2 µM [falling, full curve, poor fit] | –
CCn1nc(NC(=O)C2CCCO2)c2cc3cc(C)ccc3nc21 (configuration not stated) | 22.4 µM [falling, partial curve, poor fit] | –
Cc1nn2c(-c3ccccc3)ccnc2c1-c1ccccc1 | 3.66 µM [rising, partial curve, poor fit] | –
COc1ccc(CCC(C)NCc2cc(OC)cc(OC)c2)cc1 (configuration not stated) | 1 µM [rising, full curve, poor fit] | –

Grouped by structure: the compounds so far containing an aryl methoxy group.
Structure (SMILES) | AC50 [1] | AC50 [2]
COc1ccc(NC(=O)CSc2ncc(-c3ccc(F)cc3)n2Cc2ccco2)cc1 | 23.1 µM [falling, single point] | 23.1 µM [rising, partial curve, poor fit]
COc1ccc(/C=C2\COc3ccccc3C2=O)c(OC)c1 | 35.5 µM [falling, single point] | –
COc1cc(OC)c(-c2nn3c(-c4ccncc4)nnc3s2)cc1OC | 11.2 µM [rising, partial curve, poor fit] | –
COc1ccc2cc3c(N)nn(C(=O)c4cccc(F)c4)c3nc2c1 | 0.891 µM [falling, full curve] | –
COc1cc(C(=O)OCC(=O)Nc2ccc(SC(F)F)cc2)cc(OC)c1OC | 29.1 µM [falling, single point] | –
COc1ccc2c(c1)[n+](=O)c(C(C)=O)c(C)n2[O-] | 18.4 µM [falling, partial curve, poor fit] | –
COc1cc(NC(=O)c2noc(C)c2[N+](=O)[O-])c(OC)cc1Cl | 5.01 µM [falling, partial curve, poor fit] | –
COc1ccccc1N/N=C(\C#N)C(=N)N1CCOCC1 | 2.82 µM [falling, full curve, poor fit] | –
COc1cccc(-c2nnc(NC(=O)C3CCCCC3)o2)c1 | 0.58 µM [falling, partial curve, poor fit] | –
COc1ccc(/C=N/NC(=O)c2ccn[nH]2)cc1Cn1nc(C)c([N+](=O)[O-])c1C | 0.2 µM [falling, full curve, poor fit] | –
COc1ccc(CCC(C)NCc2cc(OC)cc(OC)c2)cc1 (configuration not stated) | 1 µM [rising, full curve, poor fit] | –
